No constants are given. Whether binding was seen depends on the method and setting. Binding calls can cover weak binding; strength is not graded here.
Target: T1, HGF binding peptide-1 displayed on the surface of bacteria
T1 sequence: HRGLKWEIVPWSGCG
Test: flow cytometry on cells; competition: 10^7 bacteria incubated with 7 nM HGF and the same molarity of EGF; binding of EGF to the displayed peptide read from the loss of HGF signal; only the binder purified

For Recombinant human EGF (ligand), the binding was “binds”.

Reference: paper PMC4745783, “The HGF inhibitory peptide HGP-1 displays promising in vitro and in vivo efficacy for targeted cancer therapy” (Oncotarget, 2015)
